Reference: PubChem BioAssay AID1671190 (National Center for Advancing Translational Sciences (NCATS), 2021)
Hit rate of the full screen: of about 580,000 compounds, about 6,100 (1.1%) were called active. Inconclusive results, whose numbers are uncertain, are shown with a selection of clear calls. Calls come from the whole dose curve; as a rule, active = well fitted inhibition curve with a large enough effect; inconclusive = small, poorly fitted or top-dose-only effect, or another doubt; inactive = no such curve, though single readings can be large or run the other way. Where the call is inconclusive, the potency comes from a doubtful curve fit.
% is set by controls: 0 for no effect and ±100 for the full control effect; potency is the fitted concentration of half-maximal effect.

Chains of the proteins cited; added tags and fusions are not shown. Lines headed by an entry give the natural chain unless they say otherwise; changes in a name come on top.
UniProt P18054: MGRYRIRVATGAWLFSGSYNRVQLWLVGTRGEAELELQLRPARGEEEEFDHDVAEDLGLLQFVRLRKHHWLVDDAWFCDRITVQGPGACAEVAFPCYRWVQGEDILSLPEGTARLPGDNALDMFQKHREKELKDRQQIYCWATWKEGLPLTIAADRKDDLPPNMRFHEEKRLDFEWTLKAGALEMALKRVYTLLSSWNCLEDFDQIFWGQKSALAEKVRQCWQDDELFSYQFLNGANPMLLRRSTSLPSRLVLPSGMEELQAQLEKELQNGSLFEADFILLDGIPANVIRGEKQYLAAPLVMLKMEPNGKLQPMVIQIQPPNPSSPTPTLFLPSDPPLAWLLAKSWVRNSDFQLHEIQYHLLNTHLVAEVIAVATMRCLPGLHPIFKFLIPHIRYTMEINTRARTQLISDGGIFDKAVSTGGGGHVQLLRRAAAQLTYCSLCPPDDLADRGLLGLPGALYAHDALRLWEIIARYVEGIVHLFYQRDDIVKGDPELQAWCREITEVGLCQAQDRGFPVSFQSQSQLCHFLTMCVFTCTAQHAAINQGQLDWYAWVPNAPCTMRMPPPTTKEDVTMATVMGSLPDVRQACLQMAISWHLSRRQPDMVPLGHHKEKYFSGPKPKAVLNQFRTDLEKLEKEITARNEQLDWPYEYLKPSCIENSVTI

These compounds were tested against Polyunsaturated fatty acid lipoxygenase ALOX12 (Homo sapiens) (UniProt P18054) (assay: Primary qHTS assay for inhibitors of human arachidonate 12S-lipoxygenase (ALOX12): Round 2). Conditions: purified 12hLO, xylenol orange hydroperoxide absorbance; activity change, negative = inhibition: at 108 µM (top of the series) unless noted.
How it was run: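 Hydroperoxide product was detected by ferrous iron/xylenol orange as the 573 to 405 nm absorbance ratio. Arachidonic acid at 40 uM (final) was turned over for 30 min at room temperature by 150 nM human 12hLO, pH 7.0 Hepes buffer, after 15 min compound preincubation.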
`COc1ccc(-c2nnc(SCC(=O)Nc3cc(OC)cc(OC)c3)[nH]c2=O)cc1` was tested, and the “activity change, negative = inhibition” value was inactive: 0.836%.
In the case of `CCN(CC)CCN1C(=O)C(O)=C(C(=O)c2cccs2)C1c1ccccn1` (centres undefined), the “activity change, negative = inhibition” value is reported as inactive: 6.58%.
For `Cc1cccnc1-c1cccc2c1OC(CNC(=O)Cn1cncn1)C2` (centres undefined), the “activity change, negative = inhibition” value was inactive: 2.81%.
`Cc1oc(-c2ccccc2NC(=O)c2ccsc2)nc1CN(C)Cc1ccc2c(c1)CCCN2C` was tested, and the Potency was inconclusive: 112 µM [inhibitor, single point].
`O=C(NCc1nnc2n1C(C(=O)O)CC2)c1ccc2c(c1)OCO2` (centres undefined) was tested, and the Potency was inconclusive: 56.2 µM [inhibitor, partial curve, poor fit].
In the case of `O=C(Nc1cc2c3c(c1)CC(=O)N3CCC2)c1ccccc1F`, the activity change, negative = inhibition is reported as inconclusive: -30.8% [inhibitor].
For `CCOc1ccc(N2C(=O)CC(N(CCc3ccc(OC)cc3)C(=O)/C=C/C(=O)O)C2=O)cc1` (centres undefined), the Potency was inconclusive: 100 µM [inhibitor, partial curve, poor fit].
In the case of `CCc1ccc(NC(=O)C(=O)NNC(=O)c2cccs2)cc1`, the Potency is reported as inconclusive: 0.199 µM [inhibitor, full curve, poor fit].
With `Cc1ccc(N/N=C/c2ccc(F)cc2F)cc1Cl` the “activity change, negative = inhibition” value was inactive: 9.9%.
`NCCCC(=O)N1CCCCC1c1nnc2n1CCNC2` (centres undefined) was tested, and the Potency was inconclusive: 3.55 µM [inhibitor, full curve, poor fit].
With `Cc1n[nH]c(C)c1C(N)C(=O)N1CCN(Cc2ccccc2C#N)CC1` (centres undefined) the Potency was inconclusive: 3.16 µM [inhibitor, full curve].
For `COc1cc(NS(=O)(=O)c2ccc(NC(=S)NC(=O)C3CCCC3)cc2)nc(OC)n1`, the Potency was inconclusive: 35.5 µM [inhibitor, partial curve, poor fit].
For `CCOC(=O)c1cc(-c2csc(-c3cccc(Cl)c3)n2)on1`, the activity change, negative = inhibition was inconclusive: -46.2% [inhibitor].
With `CC(=O)Nc1cccc(-c2nnc(-c3ccc(C)cc3)o2)c1` the Potency was inconclusive: 39.8 µM [inhibitor, single point].
For `COC(=O)Nc1ccc(C)cc1NC(=O)OC`, the “activity change, negative = inhibition” value was inactive: 7.65%.
With `CCOC(=O)c1ccc(N=NN(C)C)cc1` the Potency was inconclusive: 112 µM [inhibitor, partial curve, poor fit].
With `N#Cc1cc2cc3c(cc2nc1SCC(=O)N1CCOCC1)OCO3` the Potency was inconclusive: 63.1 µM [inhibitor, partial curve, poor fit].
For `CCOc1ccc(S(=O)(=O)Nc2cc(SCC(=O)O)c(O)c3ccccc23)cc1`, the Potency was inconclusive: 3.55 µM [inhibitor, full curve, poor fit].
In the case of `Cc1ccc(S(=O)(=O)CCC(=O)OCC(=O)N2c3ccccc3CC2C)cc1` (centres undefined), the Potency is reported as inconclusive: 100 µM [inhibitor, single point].
